# Source: the supplement of paper PMC8728848
# The list shows a part of the results.
# Experiments:
# Assay in all cases: glycan array binding signal (z-score within array); higher = stronger binding
# Details in all cases: glycan notation: IUPAC condensed, linker removed
# [1] = biological target: Neu5Ac(a2-3)Gal(b1-4)GlcNAc
# Outline: (§1)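 The binding signal is a Z-score computed within each array and averaged over linkers. Arrays of the same protein sequence at different concentrations or buffers were also averaged together. Data originate from 3228 arrays in the Consortium for Functional Glycomics database, kept only where the protein sequence was available.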
# [2] = biological target: Neu5Ac(a2-3)Gal(b1-4)GlcNAc(b1-2)Man
# Outline: as §1
# [3] = biological target: Neu5Ac(a2-3)Gal(b1-4)GlcNAc(b1-2)Man(a1-3)[GlcNAc(b1-4)][Neu5Ac(a2-3)Gal(b1-4)GlcNAc(b1-2)Man(a1-6)]Man(b1-4)GlcNAc(b1-4)GlcNAc
# Outline: as §1
# [4] = biological target: Neu5Ac(a2-3)Gal(b1-4)GlcNAc(b1-2)Man(a1-3)[Neu5Ac(a2-3)Gal(b1-4)GlcNAc(b1-2)Man(a1-6)]Man(b1-4)GlcNAc(b1-4)GlcNAc
# Outline: as §1
# [5] = biological target: Neu5Ac(a2-3)Gal(b1-4)GlcNAc(b1-2)Man(a1-3)[Neu5Ac(a2-3)Gal(b1-4)GlcNAc(b1-2)Man(a1-6)]Man(b1-4)GlcNAc(b1-4)[Fuc(a1-6)]GlcNAc
# Outline: as §1
# [6] = biological target: Neu5Ac(a2-3)Gal(b1-4)GlcNAc(b1-2)Man(a1-3)[Neu5Ac(a2-6)Gal(b1-4)GlcNAc(b1-2)Man(a1-6)]Man(b1-4)GlcNAc(b1-4)GlcNAc
# Outline: as §1
# [7] = biological target: Neu5Ac(a2-3)Gal(b1-4)GlcNAc(b1-2)[Neu5Ac(a2-3)Gal(b1-4)GlcNAc(b1-4)]Man(a1-3)[GlcNAc(b1-4)][Neu5Ac(a2-3)Gal(b1-4)GlcNAc(b1-2)[Neu5Ac(a2-3)Gal(b1-4)GlcNAc(b1-6)]Man(a1-6)]Man(b1-4)GlcNAc(b1-4)GlcNAc
# Outline: as §1
# [8] = biological target: Neu5Ac(a2-3)Gal(b1-4)GlcNAc(b1-2)[Neu5Ac(a2-3)Gal(b1-4)GlcNAc(b1-4)]Man(a1-3)[GlcNAc(b1-4)][Neu5Ac(a2-3)Gal(b1-4)GlcNAc(b1-4)Man(a1-6)]Man(b1-4)GlcNAc(b1-4)GlcNAc
# Outline: as §1
# [9] = biological target: Neu5Ac(a2-3)Gal(b1-4)GlcNAc(b1-2)[Neu5Ac(a2-3)Gal(b1-4)GlcNAc(b1-6)]Man(a1-6)[Neu5Ac(a2-3)Gal(b1-4)GlcNAc(b1-2)Man(a1-3)]Man(b1-4)GlcNAc(b1-4)GlcNAc
# Outline: as §1
# [10] = biological target: Neu5Ac(a2-3)Gal(b1-4)GlcNAc(b1-2)[Neu5Ac(a2-3)Gal(b1-4)GlcNAc(b1-6)]Man(a1-6)[Neu5Ac(a2-3)Gal(b1-4)GlcNAc(b1-2)Man(a1-3)][GlcNAc(b1-4)]Man(b1-4)GlcNAc(b1-4)GlcNAc
# Outline: as §1
# [11] = biological target: Neu5Ac(a2-3)Gal(b1-4)GlcNAc(b1-3)Gal
# Outline: as §1
# [12] = biological target: Neu5Ac(a2-3)Gal(b1-4)GlcNAc(b1-3)Gal(b1-3)GlcNAc
# Outline: as §1
# [13] = biological target: Neu5Ac(a2-3)Gal(b1-4)GlcNAc(b1-3)Gal(b1-4)GlcNAc
# Outline: as §1
# [14] = biological target: Neu5Ac(a2-3)Gal(b1-4)GlcNAc(b1-3)Gal(b1-4)GlcNAc(b1-2)Man(a1-3)[Neu5Ac(a2-3)Gal(b1-4)GlcNAc(b1-3)Gal(b1-4)GlcNAc(b1-2)Man(a1-6)]Man(b1-4)GlcNAc(b1-4)GlcNAc
# Outline: as §1
# [15] = biological target: Neu5Ac(a2-3)Gal(b1-4)GlcNAc(b1-3)Gal(b1-4)GlcNAc(b1-3)Gal(b1-4)GlcNAc
# Outline: as §1
# [16] = biological target: Neu5Ac(a2-3)Gal(b1-4)GlcNAc(b1-3)Gal(b1-4)GlcNAc(b1-3)Gal(b1-4)GlcNAc(b1-2)Man(a1-3)[Neu5Ac(a2-3)Gal(b1-4)GlcNAc(b1-3)Gal(b1-4)GlcNAc(b1-3)Gal(b1-4)GlcNAc(b1-2)Man(a1-6)]GalNAc
# Outline: as §1
# [17] = biological target: Neu5Ac(a2-3)Gal(b1-4)GlcNAc(b1-3)Gal(b1-4)GlcNAc(b1-3)GalNAc
# Outline: as §1
# [18] = biological target: Neu5Ac(a2-3)Gal(b1-4)GlcNAc(b1-3)Gal(b1-4)GlcNAc(b1-3)[Neu5Ac(a2-3)Gal(b1-4)GlcNAc(b1-3)Gal(b1-4)GlcNAc(b1-6)]GalNAc
# Outline: as §1
# [19] = biological target: Neu5Ac(a2-3)Gal(b1-4)GlcNAc(b1-3)Gal(b1-4)GlcNAc(b1-6)[Gal(b1-3)]GalNAc
# Outline: as §1
# [20] = biological target: Neu5Ac(a2-3)Gal(b1-4)GlcNAc(b1-3)Gal(b1-4)[Fuc(a1-3)]GlcNAc
# Outline: as §1
# [21] = biological target: Neu5Ac(a2-3)Gal(b1-4)GlcNAc(b1-3)GalNAc
# Outline: as §1
# [22] = biological target: Neu5Ac(a2-3)Gal(b1-4)GlcNAc(b1-3)[Neu5Ac(a2-3)Gal(b1-4)GlcNAc(b1-6)]GalNAc
# Outline: as §1
# [23] = biological target: Neu5Ac(a2-3)Gal(b1-4)GlcNAc(b1-6)GalNAc
# Outline: as §1
# [24] = biological target: Neu5Ac(a2-3)Gal(b1-4)GlcNAc(b1-6)[Gal(b1-3)]GalNAc
# Outline: as §1
# [25] = biological target: Neu5Ac(a2-3)Gal(b1-4)GlcNAc(b1-6)[Neu5Ac(a2-3)Gal(b1-3)]GalNAc
# Outline: as §1
# [26] = biological target: Neu5Ac(a2-3)Gal(b1-4)GlcNAc6S
# Outline: as §1
# [27] = biological target: Neu5Ac(a2-3)Gal(b1-4)[Fuc(a1-3)]GlcNAc
# Outline: as §1
# [28] = biological target: Neu5Ac(a2-3)Gal(b1-4)[Fuc(a1-3)]GlcNAc(b1-2)Man
# Outline: as §1
# [29] = biological target: Neu5Ac(a2-3)Gal(b1-4)[Fuc(a1-3)]GlcNAc(b1-3)Gal
# Outline: as §1
# [30] = biological target: Neu5Ac(a2-3)Gal(b1-4)[Fuc(a1-3)]GlcNAc(b1-3)Gal(b1-4)GlcNAc
# Outline: as §1
# [31] = biological target: Neu5Ac(a2-3)Gal(b1-4)[Fuc(a1-3)]GlcNAc(b1-3)Gal(b1-4)[Fuc(a1-3)]GlcNAc(b1-3)Gal(b1-4)[Fuc(a1-3)]GlcNAc
# Outline: as §1
# [32] = biological target: Neu5Ac(a2-3)Gal(b1-4)[Fuc(a1-3)]GlcNAc(b1-3)GalNAc
# Outline: as §1
# [33] = biological target: Neu5Ac(a2-3)Gal(b1-4)[Fuc(a1-3)]GlcNAc(b1-6)[Gal(b1-3)]GalNAc
# Outline: as §1
# [34] = biological target: Neu5Ac(a2-3)Gal(b1-4)[Fuc(a1-3)]GlcNAc(b1-6)[Neu5Ac(a2-3)Gal(b1-3)]GalNAc
# Outline: as §1
# [35] = biological target: Neu5Ac(a2-3)Gal(b1-4)[Fuc(a1-3)]GlcNAc6S
# Outline: as §1
# [36] = biological target: Neu5Ac(a2-3)Gal6S(b1-4)GlcNAc
# Outline: as §1
# [37] = biological target: Neu5Ac(a2-3)Gal6S(b1-4)[Fuc(a1-3)]GlcNAc
# Outline: as §1
# [38] = biological target: Neu5Ac(a2-3)GalNAc
# Outline: as §1
binder,measurement,setting,value
Epf (Streptococcus pyogenes) (protein) GDHGPEFNGVMVVKAAEAEELPDDLMNFKGTWEVSADGSSGRFFSKGATDSYVFHLIPAKDVKKPGWREHNEVKDSYIKIDKQSIAARYKTSTTAPYSVAFKVNTKSLIKDHDYKITFEQGQIASGITVDYRIGSAFNKTTDDSFKISDESKYASNVKIEGEEQGFKQREQGDKTISFRTLKEGPMSLVLLSKVEKKPQGDLDVEFKNLKIIDVTNPSQLDKGVAYVGNKNVQLTLKSDDGRTNFEGDEISLFNSRGELLQTVTVTKDQQNPISITLSEDQAKSLKNKEKLKVSIKQKQSKKTSKDFFFEVGIDPKVEAKQKEKLLELDKVKKQIEDSINGDAWLPEKPVDLQGDHGLSAWSHPQFEK,glycan array binding signal (z-score),[1],-0.467
same,glycan array binding signal (z-score),[2],1.89
same,glycan array binding signal (z-score),[3],0.694
same,glycan array binding signal (z-score),[4],-0.049
same,glycan array binding signal (z-score),[5],-0.499
same,glycan array binding signal (z-score),[6],-0.643
same,glycan array binding signal (z-score),[7],-1.09
same,glycan array binding signal (z-score),[8],0.124
same,glycan array binding signal (z-score),[9],-0.195
same,glycan array binding signal (z-score),[10],-0.742
same,glycan array binding signal (z-score),[11],-1.72
same,glycan array binding signal (z-score),[12],-0.595
same,glycan array binding signal (z-score),[13],-0.961
same,glycan array binding signal (z-score),[14],1.33
same,glycan array binding signal (z-score),[15],-0.329
same,glycan array binding signal (z-score),[16],0.472
same,glycan array binding signal (z-score),[17],-0.677
same,glycan array binding signal (z-score),[18],0.176
same,glycan array binding signal (z-score),[19],1.71
same,glycan array binding signal (z-score),[20],-0.954
same,glycan array binding signal (z-score),[21],1.66
same,glycan array binding signal (z-score),[22],1.07
same,glycan array binding signal (z-score),[23],-0.868
same,glycan array binding signal (z-score),[24],0.531
same,glycan array binding signal (z-score),[25],-0.626
same,glycan array binding signal (z-score),[26],0.198
same,glycan array binding signal (z-score),[27],-0.747
same,glycan array binding signal (z-score),[28],-1.48
same,glycan array binding signal (z-score),[29],-1.57
same,glycan array binding signal (z-score),[30],-0.491
same,glycan array binding signal (z-score),[31],-1.22
same,glycan array binding signal (z-score),[32],0.903
same,glycan array binding signal (z-score),[33],0.346
same,glycan array binding signal (z-score),[34],1.01
same,glycan array binding signal (z-score),[35],0.756
same,glycan array binding signal (z-score),[36],0.802
same,glycan array binding signal (z-score),[37],-0.292
same,glycan array binding signal (z-score),[38],0.334

# 2 entries from above, with bars between the fields:
binder | measurement | setting | value
Epf (Streptococcus pyogenes) (protein) GDHGPEFNGVMVVKAAEAEELPDDLMNFKGTWEVSADGSSGRFFSKGATDSYVFHLIPAKDVKKPGWREHNEVKDSYIKIDKQSIAARYKTSTTAPYSVAFKVNTKSLIKDHDYKITFEQGQIASGITVDYRIGSAFNKTTDDSFKISDESKYASNVKIEGEEQGFKQREQGDKTISFRTLKEGPMSLVLLSKVEKKPQGDLDVEFKNLKIIDVTNPSQLDKGVAYVGNKNVQLTLKSDDGRTNFEGDEISLFNSRGELLQTVTVTKDQQNPISITLSEDQAKSLKNKEKLKVSIKQKQSKKTSKDFFFEVGIDPKVEAKQKEKLLELDKVKKQIEDSINGDAWLPEKPVDLQGDHGLSAWSHPQFEK | glycan array binding signal (z-score) | [10] | -0.742
same | glycan array binding signal (z-score) | [36] | 0.802
